No constants are given. Whether binding was seen depends on the method and setting. Some binding calls cover weakened binding; strength is not graded here. For part of these data: Sequences can lack the tags named with a protein.
T1: IL-17RA-ECD-His (UniProt Q96F46)
T1 sequence (looked up): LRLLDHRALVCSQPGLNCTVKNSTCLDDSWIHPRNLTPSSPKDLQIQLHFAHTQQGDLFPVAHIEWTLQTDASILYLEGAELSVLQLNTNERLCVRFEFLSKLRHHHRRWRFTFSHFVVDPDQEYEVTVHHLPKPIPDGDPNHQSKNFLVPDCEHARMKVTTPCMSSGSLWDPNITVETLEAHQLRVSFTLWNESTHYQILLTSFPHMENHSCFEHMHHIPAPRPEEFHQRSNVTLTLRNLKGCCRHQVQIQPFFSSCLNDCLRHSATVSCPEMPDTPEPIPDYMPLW

T2: 过表达IL-17RA的CHO细胞表面的IL-17RA (UniProt Q96F46)
T2 sequence (looked up): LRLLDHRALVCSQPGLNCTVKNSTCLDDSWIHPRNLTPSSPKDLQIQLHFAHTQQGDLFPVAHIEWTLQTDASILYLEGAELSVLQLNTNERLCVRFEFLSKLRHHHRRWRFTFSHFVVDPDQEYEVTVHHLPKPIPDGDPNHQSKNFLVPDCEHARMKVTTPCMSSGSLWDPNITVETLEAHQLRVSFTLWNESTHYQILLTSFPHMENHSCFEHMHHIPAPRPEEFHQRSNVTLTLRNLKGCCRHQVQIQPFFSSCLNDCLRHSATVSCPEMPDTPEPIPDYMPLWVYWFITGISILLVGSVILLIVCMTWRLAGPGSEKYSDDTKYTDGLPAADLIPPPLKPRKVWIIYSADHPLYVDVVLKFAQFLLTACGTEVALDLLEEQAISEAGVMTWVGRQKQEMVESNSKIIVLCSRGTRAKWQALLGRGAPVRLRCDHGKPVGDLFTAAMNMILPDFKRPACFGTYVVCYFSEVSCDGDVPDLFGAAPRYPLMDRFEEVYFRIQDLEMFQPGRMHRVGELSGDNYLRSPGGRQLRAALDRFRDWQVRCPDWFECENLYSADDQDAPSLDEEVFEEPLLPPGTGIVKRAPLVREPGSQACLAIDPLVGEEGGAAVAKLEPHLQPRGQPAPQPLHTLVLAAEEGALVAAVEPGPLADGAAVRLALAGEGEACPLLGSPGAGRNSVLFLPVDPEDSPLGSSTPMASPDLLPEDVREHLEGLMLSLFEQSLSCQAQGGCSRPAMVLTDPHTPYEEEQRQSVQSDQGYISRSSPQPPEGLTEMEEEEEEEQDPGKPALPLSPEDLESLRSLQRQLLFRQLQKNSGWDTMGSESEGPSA


What was measured:
[1] = biological target: T1, IL-17RA-ECD-His; assay: phage ELISA, serial dilution, IL-17RA-ECD-His coated
[2] = biological target: T1, IL-17RA-ECD-His; assay: ELISA, IL-17RA-ECD-His coated, full antibody
[3] = biological target: T2, 过表达IL-17RA的CHO细胞表面的IL-17RA; assay: flow cytometry on CHO cells overexpressing IL-17RA

Row | Binder | binding [1] | binding [2] | binding [3]
1 | mAb-1单克隆纯化噬菌体 (scFv, V domains shown) VH: QVQLVQSGAEVKKPGASVKVSCKASGYSYSNYGISWVRQAPGQGLEWMGWISTYSGNTNYSKKLKGRVTMTTDTSTSTAYMELRSLRSDDTAVYYCARRVLRLDYWGQGTLVTVSS VL: DIQMTQSPSSLSASVGDRVTITCRASQDIDSSLNWYQQKPGKAPKLLIYAASNRESGVPSRFSGSGSGTDFTLTISSLQPEDFATYYCQQWANMPGTFGQGTKVEIK | binds |  | 
2 | mAb-1全抗体 (antibody, human IgG1, kappa, V domains shown) VH: QVQLVQSGAEVKKPGASVKVSCKASGYSYSNYGISWVRQAPGQGLEWMGWISTYSGNTNYSKKLKGRVTMTTDTSTSTAYMELRSLRSDDTAVYYCARRVLRLDYWGQGTLVTVSS VL: DIQMTQSPSSLSASVGDRVTITCRASQDIDSSLNWYQQKPGKAPKLLIYAASNRESGVPSRFSGSGSGTDFTLTISSLQPEDFATYYCQQWANMPGTFGQGTKVEIKR |  | binds | binds
3 | mAb-8单克隆纯化噬菌体 (scFv, V domains shown) VH: QVQLVQSGAEVKKPGASVKVSCKASGYGFASRGISWVRQAPGQGLEWMGWISTYSGNTNYAKKFEGRVTMTTDTSTSTAYMELRSLRSDDTAVYYCARRVLRLDYWGQGTLVTVSS VL: DIQMTQSPSSLSASVGDRVTITCRASQSVHTGLNWYQQKPGKAPKLLIYGASNLQSGVPSRFSGSGSGTDFTLTISSLQPEDFATYYCQQFEHNPLTFGQGIKVEIK | binds |  | 
4 | mAb-4单克隆纯化噬菌体 (scFv, V domains shown) VH: QVQLVQSGAEVKKPGASVKVSCKASGYAYSNYGISWVRQAPGQGLEWMGWISTYSGNTNYAKKFIGRVTMTTDTSTSTAYMELRSLRSDDTAVYYCARRVLRLDYWGQGTLVTVSS VL: DIQMTQSPSSLSASVGDRVTITCRASQDIDSSLNWYQQKPGKAPKLLIYAASNRESGVPSRFSGSGSGTDFTLTISSLQPEDFATYYCQQWANMPGTFGQGTKVEIK | binds |  | 
5 | mAb-4全抗体 (antibody, human IgG1, kappa, V domains shown) VH: QVQLVQSGAEVKKPGASVKVSCKASGYAYSNYGISWVRQAPGQGLEWMGWISTYSGNTNYAKKFIGRVTMTTDTSTSTAYMELRSLRSDDTAVYYCARRVLRLDYWGQGTLVTVSS VL: DIQMTQSPSSLSASVGDRVTITCRASQDIDSSLNWYQQKPGKAPKLLIYAASNRESGVPSRFSGSGSGTDFTLTISSLQPEDFATYYCQQWANMPGTFGQGTKVEIKR |  | binds | binds
6 | mAb-9全抗体 (antibody, human IgG1, kappa, V domains shown) VH: QVQLVQSGAEVKKPGASVKVSCKASGYTWTSYGISWVRQAPGQGLEWMGWISTYSGNTNYAKKFLGRVTMTTDTSTSTAYMELRSLRSDDTAVYYCARRVLRLDYWGQGTLVTVSS VL: DIQMTQSPSSLSASVGDRVTITCRASQSVHTGLNWYQQKPGKAPKLLIYGASNLQSGVPSRFSGSGSGTDFTLTISSLQPEDFATYYCQQFEHNPLTFGQGIKVEIKR |  | binds | binds
7 | mAb-8全抗体 (antibody, human IgG1, kappa, V domains shown) VH: QVQLVQSGAEVKKPGASVKVSCKASGYGFASRGISWVRQAPGQGLEWMGWISTYSGNTNYAKKFEGRVTMTTDTSTSTAYMELRSLRSDDTAVYYCARRVLRLDYWGQGTLVTVSS VL: DIQMTQSPSSLSASVGDRVTITCRASQSVHTGLNWYQQKPGKAPKLLIYGASNLQSGVPSRFSGSGSGTDFTLTISSLQPEDFATYYCQQFEHNPLTFGQGIKVEIKR |  | binds | binds

More lines, now with the values ahead:

Row | binding [1] | binding [2] | binding [3] | Binder
8 |  | binds | binds | mAb-10全抗体 (antibody, human IgG1, kappa, V domains shown) VH: QVQLVQSGAEVKKPGASVKVSCKASGYSFSSYGISWVRQAPGQGLEWMGWISTYSGNTNYAKKFKGRVTMTTDTSTSTAYMELRSLRSDDTAVYYCARRVLRLDYWGQGTLVTVSS VL: DIQMTQSPSSLSASVGDRVTITCRASQSVHTGLNWYQQKPGKAPKLLIYGASNLQSGVPSRFSGSGSGTDFTLTISSLQPEDFATYYCQQFEHNPLTFGQGIKVEIKR
9 |  | binds | binds | mAb-11全抗体 (antibody, human IgG1, kappa, V domains shown) VH: QVQLVQSGAEVKKPGASVKVSCKASGYAWTRYGISWVRQAPGQGLEWMGWISTYSGNTNYAKKFKGRVTMTTDTSTSTAYMELRSLRSDDTAVYYCARRVLRLDYWGQGTLVTVSS VL: DIQMTQSPSSLSASVGDRVTITCRASQSVHTGLNWYQQKPGKAPKLLIYGASNLQSGVPSRFSGSGSGTDFTLTISSLQPEDFATYYCQQFEHNPLTFGQGIKVEIKR
10 | binds |  |  | mAb-10单克隆纯化噬菌体 (scFv, V domains shown) VH: QVQLVQSGAEVKKPGASVKVSCKASGYSFSSYGISWVRQAPGQGLEWMGWISTYSGNTNYAKKFKGRVTMTTDTSTSTAYMELRSLRSDDTAVYYCARRVLRLDYWGQGTLVTVSS VL: DIQMTQSPSSLSASVGDRVTITCRASQSVHTGLNWYQQKPGKAPKLLIYGASNLQSGVPSRFSGSGSGTDFTLTISSLQPEDFATYYCQQFEHNPLTFGQGIKVEIK
11 | binds |  |  | mAb-11单克隆纯化噬菌体 (scFv, V domains shown) VH: QVQLVQSGAEVKKPGASVKVSCKASGYAWTRYGISWVRQAPGQGLEWMGWISTYSGNTNYAKKFKGRVTMTTDTSTSTAYMELRSLRSDDTAVYYCARRVLRLDYWGQGTLVTVSS VL: DIQMTQSPSSLSASVGDRVTITCRASQSVHTGLNWYQQKPGKAPKLLIYGASNLQSGVPSRFSGSGSGTDFTLTISSLQPEDFATYYCQQFEHNPLTFGQGIKVEIK
12 | binds |  |  | mAb-9单克隆纯化噬菌体 (scFv, V domains shown) VH: QVQLVQSGAEVKKPGASVKVSCKASGYTWTSYGISWVRQAPGQGLEWMGWISTYSGNTNYAKKFLGRVTMTTDTSTSTAYMELRSLRSDDTAVYYCARRVLRLDYWGQGTLVTVSS VL: DIQMTQSPSSLSASVGDRVTITCRASQSVHTGLNWYQQKPGKAPKLLIYGASNLQSGVPSRFSGSGSGTDFTLTISSLQPEDFATYYCQQFEHNPLTFGQGIKVEIK

Source: patent CN111840217A
